The source of these data is publication doi:10.1101/2020.11.12.379313.

For the experiment, the target named is full-length APP (UniProt P05067). The experiment is described as follows: co-IP.

These are yes or no findings as the source states them, for the method shown. In cells and extracts the contact can be indirect. A result given as binding can be weak or reduced; the word gives no strength.

As for “human GSAP-16k with HA tag (a.a. 733 to a.a. 854) (from UniProt A4D1B5 733-854) (domain or fragment)”, the binding entry was “binds”.
